Experimental data: PubChem BioAssay AID1259308 (NCATS, 2017)
Screen: 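Genes whose loss raises luciferase production in HEK293 cells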 (primary screen). Cell system: human HEK293 embryonic kidney cells stably expressing firefly luciferase (HEK-CMV-Luc2-Hygro). Reagent: single siRNA against human genes, 0.8 pmol siRNA per well. Time to read-out: 72 h. Measurement: 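Luciferase light (ONE-Glo) measured on one replicate plate set and viability (CellTiter-Glo) on the other, scaled to a negative control siRNA, with robust z-scores and luciferase per cell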. Reading the numbers: total luciferase, z-score: higher = more reporter protein produced. Active means: 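Active when the median/MAD z-score for overall luciferase is greater than 3; a gene was taken forward for validation with new siRNAs if at least two of its three siRNAs passed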. Calls: active = raised luciferase; inactive = no rise.
Shown is an unselected part of about 59,000 reagents tested. In the full data, about 1,510 (2.6%) got an active call. 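Calls use total luciferase alone and ignore viability, so some active siRNAs may act by altering cell number.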 The numbers tell different reagents against one gene apart. Further read-outs or replicates are left out here.

Against SMCO4 (single-pass membrane protein with coiled-coil domains 4) #1 the deposit lists total luciferase, z-score 1.33; inactive. For SMCO4 (single-pass membrane protein with coiled-coil domains 4) #2, the entry reads total luciferase, z-score 0.0128; inactive. Knock-down of SMCO4 (single-pass membrane protein with coiled-coil domains 4) #3 came out at: total luciferase, z-score 0.775; inactive. Knock-down of KIAA0586 #1 resulted in: total luciferase, z-score -0.622; inactive. After knock-down of KIAA0586 #2, the screen gave total luciferase, z-score 2.22; inactive. KIAA0586 #3 gave total luciferase, z-score 4.78; active.

RPL32P19 (ribosomal protein L32 pseudogene 19) #1 scored total luciferase, z-score 0.284; inactive. With knock-down of RPL32P19 (ribosomal protein L32 pseudogene 19) #2, the screen gave total luciferase, z-score 1.65; inactive. With knock-down of RPL32P19 (ribosomal protein L32 pseudogene 19) #3, the screen gave total luciferase, z-score 1.48; inactive. Silencing of MS4A7 (membrane spanning 4-domains A7) #1 came out at: total luciferase, z-score -1.11; inactive. Knock-down of MS4A7 (membrane spanning 4-domains A7) #2 resulted in: total luciferase, z-score 2.11; inactive. For MS4A7 (membrane spanning 4-domains A7) #3, the entry reads total luciferase, z-score 0.845; inactive.

Against LY6E (lymphocyte antigen 6 family member E) #1 the deposit lists total luciferase, z-score 2.62; inactive. For LY6E (lymphocyte antigen 6 family member E) #2, the values are total luciferase, z-score 0.018; inactive. With knock-down of LY6E (lymphocyte antigen 6 family member E) #3, the screen gave total luciferase, z-score -1.79; inactive.

4 entries from above, ordered by “total luciferase, z-score”, highest first:
KIAA0586 #3: total luciferase, z-score = 4.78; Call = active
KIAA0586 #2: total luciferase, z-score = 2.22; Call = inactive
RPL32P19 (ribosomal protein L32 pseudogene 19) #2: total luciferase, z-score = 1.65; Call = inactive
RPL32P19 (ribosomal protein L32 pseudogene 19) #1: total luciferase, z-score = 0.284; Call = inactive

Further entries follow.
KCNJ9 (potassium inwardly rectifying channel subfamily J member 9) #1 gave total luciferase, z-score -0.286; inactive. Knock-down of KCNJ9 (potassium inwardly rectifying channel subfamily J member 9) #2 came out at: total luciferase, z-score -0.22; inactive. Depletion of KCNJ9 (potassium inwardly rectifying channel subfamily J member 9) #3 resulted in: total luciferase, z-score 0.977; inactive. After knock-down of CLEC3A (C-type lectin domain family 3 member A) #1, the screen gave total luciferase, z-score 1.16; inactive. After knock-down of CLEC3A (C-type lectin domain family 3 member A) #2, the record shows total luciferase, z-score 0.835; inactive. CLEC3A (C-type lectin domain family 3 member A) #3 scored total luciferase, z-score 0.639; inactive.

For HERC5 (HECT and RLD domain containing E3 ubiquitin protein ligase 5) #1, the values are total luciferase, z-score -0.781; inactive. HERC5 (HECT and RLD domain containing E3 ubiquitin protein ligase 5) #2 scored total luciferase, z-score 0.206; inactive. For HERC5 (HECT and RLD domain containing E3 ubiquitin protein ligase 5) #3 the deposit lists total luciferase, z-score -0.516; inactive. Against ATP6V1F (ATPase H+ transporting V1 subunit F) #1, the values are total luciferase, z-score 0.502; inactive. Against ATP6V1F (ATPase H+ transporting V1 subunit F) #2, the values are total luciferase, z-score 0.0635; inactive. After knock-down of ATP6V1F (ATPase H+ transporting V1 subunit F) #3 the results were total luciferase, z-score 1.76; inactive.

For ASAH1 (N-acylsphingosine amidohydrolase 1) #1, the entry reads total luciferase, z-score 0.846; inactive. After knock-down of ASAH1 (N-acylsphingosine amidohydrolase 1) #2 the results were total luciferase, z-score -0.448; inactive. Knock-down of ASAH1 (N-acylsphingosine amidohydrolase 1) #3 gave: total luciferase, z-score -0.0842; inactive. With knock-down of SALL1 (spalt like transcription factor 1) #1, the record shows total luciferase, z-score -0.0249; inactive. With knock-down of SALL1 (spalt like transcription factor 1) #2, the record shows total luciferase, z-score -0.361; inactive. With knock-down of SALL1 (spalt like transcription factor 1) #3 the results were total luciferase, z-score 2.69; inactive.

Depletion of CSRP1 (cysteine and glycine rich protein 1) #1 came out at: total luciferase, z-score 0.298; inactive. For CSRP1 (cysteine and glycine rich protein 1) #2, the entry reads total luciferase, z-score 0.575; inactive. With knock-down of CSRP1 (cysteine and glycine rich protein 1) #3, the screen gave total luciferase, z-score -0.876; inactive. ADAM8 (ADAM metallopeptidase domain 8) #1 showed total luciferase, z-score 0.478; inactive. Against ADAM8 (ADAM metallopeptidase domain 8) #2 the deposit lists total luciferase, z-score 0.0625; inactive. With knock-down of ADAM8 (ADAM metallopeptidase domain 8) #3, the record shows total luciferase, z-score -0.0875; inactive.

After knock-down of KPTN (kaptin, actin binding protein) #1, the screen gave total luciferase, z-score 0.835; inactive. Knock-down of KPTN (kaptin, actin binding protein) #2 came out at: total luciferase, z-score -0.664; inactive. With knock-down of KPTN (kaptin, actin binding protein) #3, the screen gave total luciferase, z-score -0.664; inactive.
